Taken from: PubChem BioAssay AID504793 (Drosophila RNAi Screening Center, 2011)
The deposit covers about 23,000 reagents; below is a random part of those with a known target gene and a result. Of all reagents, 62 (0.27%) got an active call. 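Calls come from follow-up tests whose scores are not deposited, so confirmed genes may have low counts here; counts are not normalised per plate.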 Raw values are not corrected between plates. Unmarked entries are inactive. A plus sign joins genes that one reagent is predicted to hit.

Aim: 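Knock-downs allowing continued mitosis even though DNA is damaged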 (primary screen)
System: Drosophila S2R+ cells
Knock-down reagent: long dsRNA against Drosophila genes, about 0.25 µg dsRNA per well
Timing: 4 days of dsRNA, then 4 hours of drug before read-out
Treatment: doxorubicin 0.5 µM for 4 hours to cause double-strand breaks, in cells also given a low, harmless dose of dsRNA against nbs to sensitise the assay
Read-out: 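Mitotic index as the number of phospho-histone H3-positive cells in each well following doxorubicin, given as raw counts without normalisation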
Scale: mitotic cells: higher = more cells in mitosis, weaker G2 arrest
Call rule: 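a call needs confirmation in secondary tests, with other dsRNAs and a check of mitotic timing without damage, not just a high primary count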
Calls: active = confirmed in follow-up tests; inactive = not confirmed

Gene | dsRNA | mitotic cells, replicate 1 | mitotic cells, replicate 2
CG3592 | DRSC18315 | 17 | –
CG14327 | DRSC14806 | 8 | –
RpL37-2 | DRSC04584 | 2 | –
CG3603 | DRSC18317 | 7 | –
CG13243 | DRSC01920 | 5 | –
CG32733 (retired record) + CG32797 | DRSC17705 | 7 | 10
Fen1 | DRSC07415 | 8 | –
Fbw5 | DRSC03146 | 5 | –
Fbw5 | DRSC29431 | 5 | –
CG31922 | DRSC21703 | 7 | –
CG31922 | DRSC26533 | 11 | –
Trs23 | DRSC03190 | 6 | –
Trs23 | DRSC29243 | 5 | –
pix | DRSC10533 | 6 | –
CG2059 | DRSC18203 | 9 | –
Damm | DRSC07393 | 3 | –
CG17778 | DRSC18504 | 8 | –
Dhc1 | DRSC16503 | 7 | –
CG34281 | DRSC14807 | 8 | –
CG34281 | DRSC30111 | 1 | –
CG5302 (retired record) | DRSC15764 | 2 | –
CG5302 (retired record) | DRSC15765 | 3 | –
CG5302 (retired record) | DRSC22671 | 9 | –
CG3984 | DRSC15530 | 4 | –
Ptx1 | DRSC16804 | 16 | –
Ptx1 | DRSC25321 | 10 | –
Gr59e | DRSC04276 | 4 | –
CG9500 | DRSC03237 | 1 | –
Exo70 | DRSC10774 | 6 | –
CG7692 | DRSC10902 | 7 | –
CG7692 | DRSC24040 | 4 | –
spartin | DRSC12187 | 6 | –
spartin | DRSC27182 | 5 | –
Trim9 | DRSC02242 | 9 | –
Trim9 | DRSC28679 | 7 | –
CG14160 | DRSC10161 | 4 | –
CG2182 | DRSC12308 | 12 | –
CG2182 | DRSC30052 | 6 | –
Start1 | DRSC04384 | 2 | –
Start1 | DRSC28343 | 9 | –
Jarid2 | DRSC10372 | 9 | –
Ir94b | DRSC21439 | 12 | –
CtsF | DRSC12056 | 8 | –
CtsF | DRSC12195 | 3 | –
CtsF | DRSC12196 | 4 | –
ac | DRSC18734 | 7 | –
ac | DRSC25102 | 5 | –
SAK | DRSC11879 | 2 | –
SAK | DRSC23329 | 7 | –
SAK | DRSC29461 | 4 | –
nAChRbeta3 | DRSC00325 | 2 | –
Rh3 | DRSC16822 | 6 | –
vlc | DRSC04922 | 5 | –
mei-P22 | DRSC11366 | 7 | –
CG32459 | DRSC11852 | 6 | –
CG9705 | DRSC11094 | 4 | –
CG4707 | DRSC04483 | 6 | –
CCDC53 | DRSC03056 | 5 | –
CG11085 | DRSC19374 | 8 | –
CG11085 | DRSC22832 | 8 | –
CG11085 | DRSC25203 | 5 | –
CG7573 | DRSC10884 | 5 | –
CG33159 | DRSC08199 | 11 | –
CG4611 | DRSC10434 | 2 | –
CG4611 | DRSC26382 | 6 | –
mRpL48 | DRSC00506 | 8 | –
fh | DRSC18430 | 10 | –
CG31226 | DRSC21724 | 2 | –
skl | DRSC10050 | 10 | –
Pgm2a | DRSC07068 | 5 | –
mino | DRSC14132 | 12 | –
CG30184 | DRSC22277 | 9 | –
CG30184 | DRSC29631 | 3 | –
CG12159 | DRSC06114 | 3 | –
CG5056 | DRSC02808 | 2 | –
